Source: PubChem BioAssay AID912 (NCATS, 2007).

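A cell-based FRET test of anthrax lethal toxin entry, tracked through the 460 nm emission signal; the cell line is not named here. Each compound was tested as a concentration series from about 0.0005 to 40 µM. The number is the fitted AC50 of the 460 nm signal alone; lower values mean a more potent effect. A falling signal goes with compounds filed as inhibitors or cytotoxic, a rising one with activators or fluorescent compounds (inferred from the filed classes).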

Values are in µM. Common to all entries: measured here: 460 nm channel. This is a side read-out of the assay, for part of the compounds, not drawn at random. Potencies fitted to partial, single-point or poorly fitting curves are rough. The first word of each remark tells which way the curve ran; it can be opposite to the aim of the assay.

* O=C(NCc1ccco1)c1nc2nc(-c3cccs3)cc(C(F)(F)F)n2n1 : AC50 6.31 µM (rising, partial curve)
* CCOC(=O)c1ccc(NC(=O)CCc2nc(-c3ccccc3Cl)no2)cc1 : AC50 7.943 µM (falling, partial curve)
* CC1(C)Cc2c(sc3nc(-c4cccs4)n(N)c(=O)c23)CO1 : AC50 0.01259 µM (falling, full curve, poor fit)
* NC(=NCc1ccc(Cl)c(Cl)c1)NC(=O)c1nc(Cl)c(N)nc1N : AC50 25.12 µM (falling, partial curve)
* CCCC(=O)N(c1ccc2oc(=O)sc2c1)S(=O)(=O)c1ccccc1 : AC50 12.59 µM (falling, partial curve, poor fit)
* Cc1cccc(CNc2nc(-c3c(C)noc3C)nc3ccccc23)c1 : AC50 10 µM (falling, partial curve)
* CCc1ccccc1S(=O)(=O)Cc1ccc(C(=O)N2CCN(c3ccccc3OC)CC2)o1 : AC50 25.12 µM (falling, single point)
* O=CNc1ccccc1 : AC50 1 µM (falling, full curve, poor fit)
* O=C(N=c1nc2ccccn2s1)c1ccccc1 : AC50 31.62 µM (falling, single point)
* O=C(COc1cccc2ccccc12)N1CCN(c2ccccn2)CC1 : AC50 0.3981 µM (falling, partial curve)
* COC(=O)C1=CNC=C(C(=O)OC)C1c1ccc(C(=O)OC)cc1 : AC50 10 µM (rising, partial curve)
* Cc1nc2ccccc2c2oc(C(=O)NCCN3CCCCC3C)cc12 (centres undefined) : AC50 7.943 µM (falling, partial curve)
* CC(C)(CC(=O)N1CCN(c2ccc(Cl)cc2)CC1)CC1=NS(=O)(=O)c2ccccc2N1 : AC50 31.62 µM (falling, single point)
* Cc1ccccc1-n1nnnc1SCc1ncc(-c2ccccc2)o1 : AC50 1.585 µM (falling, full curve, poor fit)
* COc1ccc(C2C=C(c3ccccc3)Nc3ncnn32)cc1 (centres undefined) : AC50 15.85 µM (rising, partial curve)
* COC(=O)c1[nH]c2ccc(Br)cc2c1NC(=O)CN1CCN(C2CCCCC2)CC1 : AC50 3.981 µM (falling, full curve, poor fit)
* CCOC(=O)C1C(=O)CC(C)(O)C(C(=O)OCC)C1/C=C/c1ccccc1 (centres undefined) : AC50 5.012 µM (rising, partial curve)
* COC(=O)C1=C(C)NC(C)=C(C(=O)OC(C)C)C1c1cccc2nonc12 (centres undefined) : AC50 12.59 µM (falling, partial curve, poor fit)
* COc1ccc(-n2c(SCC(=O)Nc3ccc4c(c3)OCO4)nc3ccccc3c2=O)cc1 : AC50 1.259 µM (rising, single point)
* CCOc1ccc(-c2nc(CSc3nncs3)cs2)cc1OC : AC50 10 µM (rising, single point)
* Cc1ccc(-c2noc(CN(C(=O)c3cccc(Br)c3)C(C)C)n2)cc1 : AC50 10 µM (falling, partial curve)

Repeated from the top, 2 entries:

{"smiles": "O=C(NCc1ccco1)c1nc2nc(-c3cccs3)cc(C(F)(F)F)n2n1", "AC50 (µM)": "6.31", "curve": "rising, partial curve"}
{"smiles": "CCOC(=O)c1ccc(NC(=O)CCc2nc(-c3ccccc3Cl)no2)cc1", "AC50 (µM)": "7.943", "curve": "falling, partial curve"}